# Reference: US7504430B2, “Maleiimide anti-tumor phosphatase inhibitors” (The United States of America as represented by the …, priority 2004, dated 2009)
# At least one compound was matched to its structure with a doubt left.
# System: Hep3B cells
# Experiment: Hep3B cell growth inhibition (Hoechst 33258 DNA fluorescence, 3 days of treatment)
# Type: cell-based, human
# Settings: versus Cpd5 (2-(2-mercaptoethanol)-3-methyl-1,4-naphthoquinone)
# Protocol: Hep3B or JM-1 hepatoma cells were grown in tissue culture in MEM medium supplemented with 10% fetal bovine serum. Cells were plated at a density of 1×104. […] Culture medium was replaced every day with new medium containing the inhibitor. After 3 days of treatment, the cells were rinsed once with PBS and frozen at −80° C. until counting. Frozen cells were thawed and incubated with the DNA-staining dye Hoescht 33258. The cell numbers were determined by measuring the dye-bound DNA fluorescence by a fluorescent plate reader.
# IC50 was determined from the growth inhibition curves.
structure (smiles),measurement,value
"O=C1C(SCCO)=C(SCCO)C(=O)N1c1ccc(OC(F)(F)F)cc1 [PM-36, 3,4-Bis-(2-hydroxy-ethylsulfanyl)-1-(trifluoromethoxyphenyl)-pyrrole-2,5-dione]",Potency at Hep3B cell growth inhibition compared with Cpd5,more potent inhibitors than Cpd5
